These are yes or no findings as the source states them, for the method shown. Binding seen in cells or lysates may run through a third protein. Some entries that bind do so weakly or less than the wild type. Tags and fused reporters may be left off the sequences shown.
Target: T1, Apaf-1 fused to an N-terminal fragment of luciferase / Apaf-1 fused to a C-terminal fragment of luciferase, O14727
T1 chain: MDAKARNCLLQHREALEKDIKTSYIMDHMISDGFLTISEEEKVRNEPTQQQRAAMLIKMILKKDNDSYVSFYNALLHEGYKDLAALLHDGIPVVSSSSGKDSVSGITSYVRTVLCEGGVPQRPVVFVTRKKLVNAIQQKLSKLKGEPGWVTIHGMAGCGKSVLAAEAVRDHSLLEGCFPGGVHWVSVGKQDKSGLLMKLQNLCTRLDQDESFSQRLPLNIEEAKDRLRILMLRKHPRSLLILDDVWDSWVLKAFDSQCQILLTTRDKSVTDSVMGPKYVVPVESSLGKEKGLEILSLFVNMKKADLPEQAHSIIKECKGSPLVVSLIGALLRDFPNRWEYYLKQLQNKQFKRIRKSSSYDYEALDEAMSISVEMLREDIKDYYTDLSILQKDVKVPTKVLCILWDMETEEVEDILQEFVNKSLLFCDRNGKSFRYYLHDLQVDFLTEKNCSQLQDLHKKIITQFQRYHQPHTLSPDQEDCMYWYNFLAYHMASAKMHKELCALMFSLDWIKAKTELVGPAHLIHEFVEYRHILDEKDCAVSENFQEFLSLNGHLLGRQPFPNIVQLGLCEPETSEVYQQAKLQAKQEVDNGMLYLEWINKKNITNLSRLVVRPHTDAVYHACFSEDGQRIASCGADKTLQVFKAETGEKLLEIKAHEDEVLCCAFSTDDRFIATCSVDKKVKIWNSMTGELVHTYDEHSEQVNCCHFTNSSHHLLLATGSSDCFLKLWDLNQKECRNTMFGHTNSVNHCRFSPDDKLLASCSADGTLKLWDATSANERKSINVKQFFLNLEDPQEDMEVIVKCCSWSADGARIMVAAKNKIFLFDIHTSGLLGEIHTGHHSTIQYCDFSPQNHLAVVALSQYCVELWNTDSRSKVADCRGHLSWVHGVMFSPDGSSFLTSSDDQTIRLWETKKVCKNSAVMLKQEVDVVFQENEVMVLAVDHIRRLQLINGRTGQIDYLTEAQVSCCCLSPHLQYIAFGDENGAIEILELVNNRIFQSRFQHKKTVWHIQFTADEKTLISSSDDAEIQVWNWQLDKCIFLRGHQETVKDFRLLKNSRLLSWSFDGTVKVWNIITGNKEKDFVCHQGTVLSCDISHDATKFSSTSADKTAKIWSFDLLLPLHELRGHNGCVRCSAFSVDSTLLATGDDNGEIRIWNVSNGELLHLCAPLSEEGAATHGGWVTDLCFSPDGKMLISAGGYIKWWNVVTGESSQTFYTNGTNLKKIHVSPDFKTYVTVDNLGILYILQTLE
Test: split reporter; split luciferase complementation; ice cold extracts from N-luc and C-luc expressing cells (5 µL of each) mixed; cytochrome c 1.6 µM and dATP 1 mM added, then One-Glo luciferase assay system; light read at 25 °C over 15 min
Conditions: remark: other sources report otherwise

binding: binds
B1: Apaf-1 fused to an N-terminal fragment of luciferase / Apaf-1 fused to a C-terminal fragment of luciferase, O14727 1-1248 (protein)
chain: T1 chain

Source: paper PMC7198528
